Laboratory results: article PMC8700349
Results are given in words; binding and its absence hold for the method and conditions named. In cells and extracts the contact can be indirect. Some binding calls cover weakened binding; strength is not graded here.

Sequences of proteins named here, by UniProt entry; tags and fusion partners are left off. Residues count along the entry.
UniProt P16070, residues 21-742: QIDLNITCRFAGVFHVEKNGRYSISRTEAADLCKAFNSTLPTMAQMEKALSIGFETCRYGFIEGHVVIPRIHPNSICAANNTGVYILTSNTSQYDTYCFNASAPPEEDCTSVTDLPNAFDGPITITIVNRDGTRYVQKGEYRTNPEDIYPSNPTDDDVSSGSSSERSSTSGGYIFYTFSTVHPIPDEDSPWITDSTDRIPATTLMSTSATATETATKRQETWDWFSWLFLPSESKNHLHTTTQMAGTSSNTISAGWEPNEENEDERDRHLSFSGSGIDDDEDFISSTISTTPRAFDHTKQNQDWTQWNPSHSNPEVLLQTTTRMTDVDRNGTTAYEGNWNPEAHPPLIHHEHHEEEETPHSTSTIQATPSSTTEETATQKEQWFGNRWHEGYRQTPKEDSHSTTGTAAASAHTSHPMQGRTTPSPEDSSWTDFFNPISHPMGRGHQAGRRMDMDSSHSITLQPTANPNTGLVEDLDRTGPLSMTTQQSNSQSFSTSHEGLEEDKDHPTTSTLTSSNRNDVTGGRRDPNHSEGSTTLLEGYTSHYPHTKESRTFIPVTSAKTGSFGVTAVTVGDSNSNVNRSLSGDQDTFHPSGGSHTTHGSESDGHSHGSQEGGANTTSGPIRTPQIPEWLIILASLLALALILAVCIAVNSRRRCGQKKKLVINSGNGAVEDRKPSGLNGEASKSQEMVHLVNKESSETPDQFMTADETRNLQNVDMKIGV

Target: T1, C6S specific binding peptide
T1 sequence (peptide, biotin on the N-terminus): EKRIWFPYRRF
Assay: pull-down; biotinylated C6S-p mixed with 0.8 mg A172 cell lysate, 4 °C, 16 h; streptavidin beads 3 h; Western blot for CD44; only the target purified

Substance: CD44 (from UniProt P16070 21-742)
- binding: binds
